# Reference: PMC4802042
# Results are given in words; binding and its absence hold for the method and conditions named. For some of these results: Binding can be weak; no strength is given.
# How the values were obtained:
# [1] = target: JNK1 (unphosphorylated, full-length human JNK1) (human); assay: crystal structure; unphosphorylated JNK1 and MKP7-CD mixed 1:1; 2.4 Å; four complexes in the asymmetric unit; both purified
# [2] = target: JNK1 (unphosphorylated, full-length human JNK1) (human); assay: SEC; Superdex-200 10/300, 10 mM HEPES pH 7.5, 150 mM NaCl, 2 mM dithiothreitol; 3 molar equivalents of the MKP domain mixed with 1 of JNK1; column calibrated with mass standards; fractions on SDS-PAGE, Coomassie; both purified
# [3] = target: GST-JNK1 (wild type) (human); assay: pull-down; GST-JNK1 (0.5 ml, 6 uM) on GS4B resin, MKP domain (0.5 ml, 20 uM) flowed through, 4 °C, 25 mM Tris-HCl pH 8.0, 150 mM NaCl, 2 mM dithiothreitol; eluted with 10 mM reduced glutathione; SDS-PAGE, Coomassie; both purified
# [4] = target: JNK1 (unphosphorylated, full-length human JNK1) (human); assay: condition: 3 molar equivalents of MKP7-CD (F285D) to 1 of JNK1; SEC; Superdex-200 10/300, 10 mM HEPES pH 7.5, 150 mM NaCl, 2 mM dithiothreitol; 3 molar equivalents of the MKP domain mixed with 1 of JNK1; column calibrated with mass standards; fractions on SDS-PAGE, Coomassie; both purified
binding [1],binding [2],binding [3],binding [4],Binder
binds,binds,binds,–,"MKP7 catalytic domain (MKP7-CD, residues 156-301) (domain or fragment, UniProt Q9BY84 156-301) NIGPTRILPNLYLGCQRDVLNKELMQQNGIGYVLNASNTCPKPDFIPESHFLRVPVNDSFCEKILPWLDKSVDFIEKAKASNGCVLVHCLAGISRSATIAIAYIMKRMDMSLDEAYRFVKEKRPTISPNFNFLGQLLDYEKKIKNQ"
–,–,–,no binding,"MKP7-CD (F285D) (domain or fragment, UniProt Q9BY84 156-301) NIGPTRILPNLYLGCQRDVLNKELMQQNGIGYVLNASNTCPKPDFIPESHFLRVPVNDSFCEKILPWLDKSVDFIEKAKASNGCVLVHCLAGISRSATIAIAYIMKRMDMSLDEAYRFVKEKRPTISPNDNFLGQLLDYEKKIKNQ"
–,no binding,no binding,–,"MKP5 kinase-binding domain (MKP5-KBD, residues 139-287) (domain or fragment, UniProt Q9Y6W6 139-287) GTPKQLASIKIIYPNDLAKKMTKCSKSHLPSQGPVIIDCRPFMEYNKSHIQGAVHINCADKISRRRLQQGKITVLDLISCREGKDSFKRIFSKEIIVYDENTNEPSRVMPSQPLHIVLESLKREGKEPLVLKGGLSSFKQNHENLCDNS"
–,binds,binds,–,"MKP5 catalytic domain (MKP5-CD, residues 320-467) (domain or fragment, UniProt Q9Y6W6 320-467) AELTPILPFLFLGNEQDAQDLDTMQRLNIGYVINVTTHLPLYHYEKGLFNYKRLPATDSNKQNLRQYFEEAFEFIEEAHQCGKGLLIHCQAGVSRSATIVIAYLMKHTRMTMTDAYKFVKGKRPIISPNLNFMGQLLEFEEDLNNGVT"

Binder,binding [1],binding [2],binding [3],binding [4]
"MKP7 kinase-binding domain (MKP7-KBD, residues 5-138) (domain or fragment, UniProt Q9BY84 5-138) MIGTQIVTERLVALLESGTEKVLLIDSRPFVEYNTSHILEAININCSKLMKRRLQQDKVLITELIQHSAKHKVDIDCSQKVVVYDQSSQDVASLSSDCFLTVLLGKLEKSFNSVHLLAGGFAEFSRCFPGLCEG",–,no binding (tested: 3 molar equivalents of KBD to 1 of JNK1),no binding,–
